# Reference: ChEMBL document CHEMBL1155126, “2-N-Methyl modifications and SAR studies of manzamine A” (Bioorg Med Chem, 2008)
# System: Candida albicans
# Assay: Antimicrobial activity against Candida albicans ATCC 90028
# Type: functional, organism-based
# Procedure, shortened: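 Modified CLSI broth microdilution; M. intracellulare by a modified Franzblau method. Samples were serially diluted in 20% DMSO/saline and tested in duplicate. Inocula were set by OD630 in broth. Growth was read before and after incubation at 630 nm, or by fluorescence 544ex/590em for A. fumigatus and M. intracellulare. MIC is the lowest concentration with no detectable growth; MFC/MBC is the lowest concentration giving no growth after 5 µL is subcultured to agar.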
structure (smiles),measurement,value
C[C@@H]1[C@H](O)[C@@H](C)/C=C/C=C/C=C/C=C/C=C/C=C/C=C/[C@H](O[C@@H]2O[C@H](C)[C@@H](O)[C@H](N)[C@@H]2O)C[C@@H]2O[C@](O)(C[C@@H](O)C[C@@H](O)[C@H](O)CC[C@@H](O)C[C@@H](O)CC(=O)O[C@H]1C)C[C@H](O)[C@H]2C(=O)O [AMPHOTERICIN B],MIC,0.68 µM
